According to paper PMC6133967:
No constants are given. Whether binding was seen depends on the method and setting. In cells and extracts the contact can be indirect. Some binding calls cover weakened binding; strength is not graded here.

By UniProt entry, the sequences of proteins in these tests, tags left out.
UniProt P11802: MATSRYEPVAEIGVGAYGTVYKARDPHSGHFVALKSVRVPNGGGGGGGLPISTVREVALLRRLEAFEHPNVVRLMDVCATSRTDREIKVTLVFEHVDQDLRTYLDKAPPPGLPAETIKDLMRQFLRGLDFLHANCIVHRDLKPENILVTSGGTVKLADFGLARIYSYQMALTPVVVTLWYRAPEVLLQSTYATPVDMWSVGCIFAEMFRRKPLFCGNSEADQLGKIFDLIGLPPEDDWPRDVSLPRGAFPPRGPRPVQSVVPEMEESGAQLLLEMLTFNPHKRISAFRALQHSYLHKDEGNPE
UniProt Q00987: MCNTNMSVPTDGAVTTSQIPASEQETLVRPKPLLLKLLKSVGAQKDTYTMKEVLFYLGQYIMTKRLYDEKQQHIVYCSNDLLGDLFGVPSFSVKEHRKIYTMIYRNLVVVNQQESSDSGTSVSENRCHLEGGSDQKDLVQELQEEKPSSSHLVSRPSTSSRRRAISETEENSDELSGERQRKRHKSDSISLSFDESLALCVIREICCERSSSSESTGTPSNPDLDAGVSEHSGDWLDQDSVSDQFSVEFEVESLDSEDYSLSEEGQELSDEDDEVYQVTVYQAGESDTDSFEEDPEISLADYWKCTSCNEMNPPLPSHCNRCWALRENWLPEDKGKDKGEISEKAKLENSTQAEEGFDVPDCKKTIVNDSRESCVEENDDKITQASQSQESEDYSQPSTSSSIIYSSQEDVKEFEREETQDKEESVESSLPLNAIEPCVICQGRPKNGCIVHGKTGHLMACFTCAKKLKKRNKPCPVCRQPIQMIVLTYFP

Tests used:
[1] = molecular target: Cyclin D1 (plasmid-based overexpression in H1299 cells) (UniProt P24385); test: co-IP; exogenous Co-IP, lysates of H1299 cells transfected with plasmids 24 h before harvest; same Co-IP buffer and procedure, one well per antibody; immunoblot
[2] = molecular target: Cyclin-dependent kinase 4 (human (endogenous in SJSA)) (UniProt P11802); test: co-IP; endogenous proteins, lysates of SJSA cells (treated with 20 µM MG-132 for 5 h, or with Nutlin and/or PD0332991); Co-IP buffer 50 mM Tris-HCl pH 7.5, 300 mM NaCl, 1% NP-40, 0.1% sodium deoxycholate; 3 µg antibody overnight, Protein G Sepharose; immunoblot
[3] = molecular target: Cyclin D1 (human (endogenous in SJSA)) (UniProt P24385); test: as above

Row | Substance | binding [1] | binding [2] | binding [3]
1 | p53 (plasmid-based overexpression in H1299 cells) (from UniProt P04637 1-393) | binds |  | 
2 | Cyclin D1 (from UniProt P24385 1-295) |  | binds | 
3 | p53 (from UniProt P04637 1-393) |  |  | binds
4 | MDM2 (from UniProt Q00987 1-491) |  | binds | binds
